Measured values: the supplement of paper PMC8728848
The list shows a part of the results.

Tests used:
Experiment in all cases: glycan array binding signal (z-score within array); higher = stronger binding
Details in all cases: glycan notation: IUPAC condensed, linker removed
[1] = molecular target: Fuc(a1-2)[GalNAc(b1-3)]Gal
Procedure, shortened: (§1)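 Glycan array binding is given as a within-array Z-score, which can be read as non-binding when negative. The arrays, 3228 of them, came from the Consortium for Functional Glycomics database and were retained only where the protein sequence was available. Z-scores were averaged across arrays of the same protein sequence at different concentrations or buffers and across linkers.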

[2] = molecular target: Fuc(a1-3)GlcNAc
Procedure, shortened: as §1

[3] = molecular target: Fuc(a1-3)[Gal(b1-4)]Glc6S
Procedure, shortened: as §1

[4] = molecular target: Fuc(a1-3)[Gal(b1-4)]GlcNAc
Procedure, shortened: as §1

[5] = molecular target: Fuc(a1-3)[Gal(b1-4)]GlcNAc(b1-2)Man
Procedure, shortened: as §1

[6] = molecular target: Fuc(a1-3)[Gal(b1-4)]GlcNAc(b1-2)Man(a1-3)[Fuc(a1-3)[Gal(b1-4)]GlcNAc(b1-2)Man(a1-6)]Man(b1-4)GlcNAc(b1-4)GlcNAc
Procedure, shortened: as §1

[7] = molecular target: Fuc(a1-3)[Gal(b1-4)]GlcNAc(b1-2)Man(a1-3)[Fuc(a1-3)[Gal(b1-4)]GlcNAc(b1-2)Man(a1-6)]Man(b1-4)GlcNAc(b1-4)[Fuc(a1-6)]GlcNAc
Procedure, shortened: as §1

[8] = molecular target: Fuc(a1-3)[Gal(b1-4)]GlcNAc(b1-3)Gal(b1-3)[Fuc(a1-4)]GlcNAc
Procedure, shortened: as §1

[9] = molecular target: Fuc(a1-3)[Gal(b1-4)]GlcNAc(b1-3)Gal(b1-4)[Fuc(a1-3)]GlcNAc
Procedure, shortened: as §1

[10] = molecular target: Fuc(a1-3)[Gal(b1-4)]GlcNAc(b1-3)Gal(b1-4)[Fuc(a1-3)]GlcNAc(b1-3)Gal(b1-4)[Fuc(a1-3)]GlcNAc
Procedure, shortened: as §1

[11] = molecular target: Fuc(a1-3)[Gal(b1-4)]GlcNAc(b1-3)GalNAc
Procedure, shortened: as §1

[12] = molecular target: Fuc(a1-3)[Gal(b1-4)]GlcNAc(b1-6)GalNAc
Procedure, shortened: as §1

[13] = molecular target: Fuc(a1-3)[Gal(b1-4)]GlcNAc(b1-6)[Gal(b1-3)GlcNAc(b1-3)]Gal(b1-4)Glc
Procedure, shortened: as §1

[14] = molecular target: Fuc(a1-3)[Gal(b1-4)]GlcNAc6S
Procedure, shortened: as §1

[15] = molecular target: Fuc(a1-3)[Gal3S(b1-4)]Glc
Procedure, shortened: as §1

[16] = molecular target: Fuc(a1-3)[Gal3S(b1-4)]GlcNAc
Procedure, shortened: as §1

[17] = molecular target: Fuc(a1-3)[Gal3S(b1-4)]GlcNAc6S
Procedure, shortened: as §1

[18] = molecular target: Fuc(a1-3)[GalNAc(b1-4)]GlcNAc
Procedure, shortened: as §1

[19] = molecular target: Fuc(a1-3)[GalNAc(b1-4)]GlcNAc6S
Procedure, shortened: as §1

[20] = molecular target: Fuc(a1-4)GlcNAc
Procedure, shortened: as §1

[21] = molecular target: Fuc(b1-3)GlcNAc
Procedure, shortened: as §1

[22] = molecular target: Gal(a1-2)Gal
Procedure, shortened: as §1

[23] = molecular target: Gal(a1-3)Gal
Procedure, shortened: as §1

[24] = molecular target: Gal(a1-3)Gal(b1-3)GlcNAc
Procedure, shortened: as §1

[25] = molecular target: Gal(a1-3)Gal(b1-3)GlcNAc(b1-2)Man
Procedure, shortened: as §1

[26] = molecular target: Gal(a1-3)Gal(b1-3)GlcNAc(b1-2)Man(a1-3)[Gal(a1-3)Gal(b1-3)GlcNAc(b1-2)Man(a1-6)]Man(b1-4)GlcNAc(b1-4)GlcNAc
Procedure, shortened: as §1

[27] = molecular target: Gal(a1-3)Gal(b1-3)GlcNAc(b1-3)GalNAc
Procedure, shortened: as §1

[28] = molecular target: Gal(a1-3)Gal(b1-3)GlcNAc(b1-6)GalNAc
Procedure, shortened: as §1

[29] = molecular target: Gal(a1-3)Gal(b1-3)[Fuc(a1-4)]GlcNAc(b1-2)Man(a1-3)[Gal(a1-3)Gal(b1-3)[Fuc(a1-4)]GlcNAc(b1-2)Man(a1-6)]Man(b1-4)GlcNAc(b1-4)GlcNAc
Procedure, shortened: as §1

[30] = molecular target: Gal(a1-3)Gal(b1-4)Glc
Procedure, shortened: as §1

[31] = molecular target: Gal(a1-3)Gal(b1-4)GlcNAc
Procedure, shortened: as §1

[32] = molecular target: Gal(a1-3)Gal(b1-4)GlcNAc(b1-2)Man
Procedure, shortened: as §1

[33] = molecular target: Gal(a1-3)Gal(b1-4)GlcNAc(b1-2)Man(a1-3)[Gal(a1-3)Gal(b1-4)GlcNAc(b1-2)Man(a1-6)]Man(b1-4)GlcNAc(b1-4)GlcNAc
Procedure, shortened: as §1

[34] = molecular target: Gal(a1-3)Gal(b1-4)GlcNAc(b1-3)GalNAc
Procedure, shortened: as §1

[35] = molecular target: Gal(a1-3)Gal(b1-4)GlcNAc(b1-6)GalNAc
Procedure, shortened: as §1

[36] = molecular target: Gal(a1-3)Gal(b1-4)[Fuc(a1-3)]GlcNAc
Procedure, shortened: as §1

[37] = molecular target: Gal(a1-3)Gal(b1-4)[Fuc(a1-3)]GlcNAc(b1-2)Man(a1-3)[Gal(a1-3)Gal(b1-4)[Fuc(a1-3)]GlcNAc(b1-2)Man(a1-6)]Man(b1-4)GlcNAc(b1-4)GlcNAc
Procedure, shortened: as §1

[38] = molecular target: Gal(a1-3)GalNAc
Procedure, shortened: as §1

[39] = molecular target: Gal(a1-3)[Gal(a1-4)]Gal(b1-4)GlcNAc
Procedure, shortened: as §1

[40] = molecular target: Gal(a1-4)Gal(b1-3)GlcNAc(b1-2)Man(a1-3)[Gal(a1-4)Gal(b1-3)GlcNAc(b1-2)Man(a1-6)]Man(b1-4)GlcNAc(b1-4)GlcNAc
Procedure, shortened: as §1

[41] = molecular target: Gal(a1-4)Gal(b1-4)Glc
Procedure, shortened: as §1

[42] = molecular target: Gal(a1-4)Gal(b1-4)GlcNAc
Procedure, shortened: as §1

[43] = molecular target: Gal(a1-4)Gal(b1-4)GlcNAc(b1-2)Man(a1-3)[Gal(a1-4)Gal(b1-4)GlcNAc(b1-2)Man(a1-6)]Man(b1-4)GlcNAc(b1-4)GlcNAc
Procedure, shortened: as §1

[44] = molecular target: Gal(a1-4)Gal(b1-4)GlcNAc(b1-3)Gal(b1-4)Glc
Procedure, shortened: as §1

[45] = molecular target: Gal(a1-4)GlcNAc
Procedure, shortened: as §1

B1: DCIR1 (Mus musculus), Q9QZ15 (protein)
chain: MASEITYAEVKFKNESNSLHTYSESPAAPREKPIRDLRKPGSPSLLLTSLMLLLLLLAITFLVAFIIYFQKYSQLLEEKKAAKNIMHNELNCTKSVSPMEDKVWSCCPKDWRLFGSHCYLVPTVSSSASWNKSEENCSRMGAHLVVIQSQEEQDFITGILDTHAAYFIGLWDTGHRQWQWVDQTPYEESITFWHNGEPSSGNEKCATIIYRWKTGWGWNDISCSLKQKSVCQMKKINL
glycan array binding signal (z-score) [1]: 0.468
glycan array binding signal (z-score) [2]: 1.52
glycan array binding signal (z-score) [3]: 1.57
glycan array binding signal (z-score) [4]: -0.114
glycan array binding signal (z-score) [5]: 0.449
glycan array binding signal (z-score) [6]: 0.638
glycan array binding signal (z-score) [7]: -0.034
glycan array binding signal (z-score) [8]: -1.11
glycan array binding signal (z-score) [9]: 0.215
glycan array binding signal (z-score) [10]: -0.352
glycan array binding signal (z-score) [11]: 1.51
glycan array binding signal (z-score) [12]: 2.41
glycan array binding signal (z-score) [13]: -0.775
glycan array binding signal (z-score) [14]: 1.43
glycan array binding signal (z-score) [15]: -0.579
glycan array binding signal (z-score) [16]: 0.427
glycan array binding signal (z-score) [17]: 1.09
glycan array binding signal (z-score) [18]: 0.906
glycan array binding signal (z-score) [19]: -0.626
glycan array binding signal (z-score) [20]: -0.807
glycan array binding signal (z-score) [21]: -0.096
glycan array binding signal (z-score) [22]: -0.211
glycan array binding signal (z-score) [23]: 0.111
glycan array binding signal (z-score) [24]: 7.14
glycan array binding signal (z-score) [25]: 1.29
glycan array binding signal (z-score) [26]: 0.166
glycan array binding signal (z-score) [27]: 0.751
glycan array binding signal (z-score) [28]: -0.283
glycan array binding signal (z-score) [29]: -0.037
glycan array binding signal (z-score) [30]: -0.476
glycan array binding signal (z-score) [31]: 2.08
glycan array binding signal (z-score) [32]: 1.46
glycan array binding signal (z-score) [33]: 0.039
glycan array binding signal (z-score) [34]: -0.346
glycan array binding signal (z-score) [35]: -0.095
glycan array binding signal (z-score) [36]: -0.171
glycan array binding signal (z-score) [37]: 2.31
glycan array binding signal (z-score) [38]: -0.62
glycan array binding signal (z-score) [39]: 3.21
glycan array binding signal (z-score) [40]: 1.54
glycan array binding signal (z-score) [41]: 0.74
glycan array binding signal (z-score) [42]: 0.433
glycan array binding signal (z-score) [43]: -0.048
glycan array binding signal (z-score) [44]: -0.366
glycan array binding signal (z-score) [45]: -0.313
